# Results deposited as PubChem BioAssay AID504774 (Drosophila RNAi Screening Center, 2011)
# Assay: 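Genes required for cells to withstand methyl methanesulphonate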 (primary screen)
# Cells: Drosophila Kc167 cells
# Reagent: long dsRNA against Drosophila genes, about 0.25 µg dsRNA per well
# Duration: about 6 days: 3 days knock-down, then 3 days with or without MMS
# Treatment: methyl methanesulphonate 0.004% (w/v) for 3 days after knock-down
# Measurement: 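Viability in wells given MMS, read as ATP luminescence, normalised by quantiles plate by plate and averaged across replicates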
# Scale: mean viability with MMS and viability with MMS: higher = more surviving cells after MMS
# The screen tested about 23,000 reagents; shown is an unselected part of those that have a named target and a result. 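Values are quantile-normalised luminescence on an arbitrary scale; higher means more cells surviving MMS.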 Names joined by + are all predicted targets of the reagent.
target,dsRNA,mean viability with MMS,"viability with MMS, replicate 1","viability with MMS, replicate 2"
foi (fear-of-intimacy),DRSC10719,3.27e6,3.63e6,3.68e6
Dad1 (Defender against apoptotic cell death 1),DRSC02263,3.44e6,3.82e6,3.95e6
CG13323,DRSC06360,3.46e6,3.90e6,4.05e6
Flad2 (Flavin adenine dinucleotide synthetase 2),DRSC02531,3.49e6,4.01e6,3.93e6
CG9877,DRSC04587,3.59e6,4.39e6,3.76e6
IntS3 (Integrator 3),DRSC21215,3.46e6,3.90e6,3.96e6
CRIF (CR6-interacting factor),DRSC11811,3.46e6,3.84e6,4.00e6
Sas-4 (Spindle assembly abnormal 4),DRSC12505,3.51e6,4.10e6,3.89e6
CG4497,DRSC02754,3.62e6,4.06e6,4.18e6
CG31345,DRSC14193,3.41e6,3.88e6,3.89e6
CG31345,DRSC14847,3.36e6,3.81e6,3.88e6
Gbp1 (Growth-blocking peptide 1),DRSC06592,3.54e6,4.08e6,3.95e6
CG14545,DRSC14889,3.64e6,3.99e6,4.27e6
CG30098,DRSC05605,3.39e6,3.99e6,3.72e6
l(3)80Fg (lethal (3) 80Fg),DRSC21645,3.71e6,3.99e6,4.36e6
l(3)80Fg (lethal (3) 80Fg),DRSC22171,3.57e6,3.98e6,4.09e6
CG32276,DRSC08027,3.42e6,3.88e6,3.85e6
EloA (Elongin A),DRSC16109,3.45e6,3.86e6,3.97e6
Ripalpha (RPA-interacting protein alpha),DRSC02657,3.62e6,4.03e6,4.17e6
Nep6 (Neprilysin 6),DRSC19877,3.26e6,3.45e6,3.77e6
naz (nazgul),DRSC14790,3.64e6,4.02e6,4.21e6
naz (nazgul),DRSC16199,3.52e6,3.94e6,4.05e6
Elba3 (Early boundary activity 3),DRSC00469,3.65e6,4.28e6,4.03e6
CG5447,DRSC15801,3.29e6,3.70e6,3.70e6
CG16713,DRSC00477,3.73e6,4.26e6,4.08e6
CG16985,DRSC08501,3.59e6,4.01e6,4.12e6
Snx16 (Sorting nexin 16),DRSC06984,3.55e6,4.09e6,3.95e6
baf (barrier to autointegration factor),DRSC03051,3.88e6,4.71e6,4.12e6
Ctu1 (Cytosolic thiouridylase subunit 1),DRSC07069,3.47e6,4.01e6,3.87e6
Wdr59 (WD repeat domain 59),DRSC02771,3.84e6,4.27e6,4.47e6
CG5435,DRSC02860,3.68e6,4.12e6,4.16e6
Eb1,DRSC05016,3.45e6,3.91e6,3.88e6
CG30423,DRSC04013,3.66e6,4.13e6,4.18e6
CG14540,DRSC14884,3.49e6,3.92e6,3.96e6
CG11779 + CG5835,DRSC15886,3.60e6,4.06e6,4.11e6
sba (six-banded),DRSC13643,3.13e6,3.62e6,3.67e6
sba (six-banded),DRSC17050,3.61e6,4.01e6,3.73e6
CG14854,DRSC14978,3.57e6,4.05e6,4.08e6
Muc68E (Mucin 68E),DRSC09146,3.55e6,4.05e6,4.01e6
CG31861,DRSC21665,3.48e6,3.93e6,4.00e6
CG11504,DRSC14318,3.65e6,4.20e6,4.05e6
CG16894,DRSC06634,3.74e6,3.95e6,3.95e6
CG16894,DRSC21785,3.29e6,3.80e6,3.80e6
ppk21 (pickpocket 21),DRSC14466,3.63e6,4.14e6,4.09e6
Tak1 (TGF-beta activated kinase 1),DRSC20390,3.64e6,4.04e6,4.14e6
Tak1 (TGF-beta activated kinase 1),DRSC20561,3.50e6,4.03e6,3.91e6
Tak1 (TGF-beta activated kinase 1),DRSC20562,3.65e6,4.11e6,4.12e6
Hsp83 (Heat shock protein 83),DRSC08664,2.98e6,3.57e6,3.58e6
kairos,DRSC19972,3.78e6,4.29e6,4.31e6
kairos,DRSC23286,3.84e6,4.26e6,4.42e6
Prp6 (pre-mRNA processing factor 6),DRSC10724,3.58e6,3.96e6,4.14e6
Prp6 (pre-mRNA processing factor 6),DRSC21773,3.25e6,3.80e6,3.76e6
kibra,DRSC14533,3.54e6,3.92e6,4.13e6
kibra,DRSC16257,2.76e6,3.48e6,3.52e6
kibra,DRSC23283,3.63e6,4.08e6,4.15e6
CG30151,DRSC05888,3.43e6,3.92e6,3.87e6
Dus2 (Dihydrouridine synthase 2),DRSC19591,3.64e6,4.08e6,4.39e6
Pglym87 (Phosphoglyceromutase 87),DRSC15252,3.66e6,4.15e6,4.17e6
Fas2 (Fasciclin 2),DRSC17308,3.55e6,3.91e6,4.13e6
Fas2 (Fasciclin 2),DRSC17309,3.67e6,4.04e6,4.18e6
Fas2 (Fasciclin 2),DRSC18664,3.35e6,3.71e6,3.93e6
TfIIB (Transcription factor IIB),DRSC03454,2.83e6,3.46e6,3.46e6
me31B (maternal expression at 31B),DRSC03569,3.29e6,3.75e6,3.67e6
PGAP3 (Post-GPI attachment to proteins 3),DRSC04989,3.57e6,3.86e6,4.22e6
COX6AL2 + Ir75d,DRSC10081,3.41e6,3.81e6,3.89e6
CG5880,DRSC15906,3.59e6,4.05e6,4.08e6
dnd (dead end),DRSC16064,3.45e6,3.90e6,3.95e6
Bdp1 (B double prime 1),DRSC03192,3.24e6,3.61e6,3.65e6
